# Experimental data from PubChem BioAssay AID743325 (National Center for Advancing Translational Sciences (NCATS), 2014).
# Most of the hits are listed elsewhere, so they are rarer here than in the full data.
# Test: qHTS profiling of Chloroquine Analogs as inhibitors of Plasmodium falciparum (3D7) proliferation
# Details: at 28.7 µM (top of the series)
# Description: Plasmodium falciparum is a virulent malarial parasite that kills 1-2 million people worldwide each year. Transmitted by mosquitoes, the sporozoite form of the parasite enters the blood stream to infect hepatocytes, where they become merozoites that infect red blood cells (erythrocytes). Within erythrocytes, merozoites begin a […] cycle of growth and division, after which the parasite is released to infect new red blood cells. Gametocytes, which form within erythrocytes as well, circulate in the bloodstream and are ingested by the mosquito, thereby completing the life cycle. To profile malarial isolates for differential chemical responses and to identify inhibitors of malarial growth, an assay that measures P. falciparum growth and replication within erythrocytes was employed. […] Because mature erythrocytes lack DNA, only Plasmodium-derived DNA is detected.
# The SYBR Green viability assay was adapted from a method described previously (Plouffe et al., 2008). […] The following morning, fluorescence intensity at 485(14) nm excitation and 535(25) nm emission wavelengths was measured on an EnVision (Perkin Elmer) plate reader. Plate reads were normalized relative to the control inhibitor (0.29 uM artemisinin) and vehicle (DMSO) wells present on each plate and then corrected by an algorithm using vehicle-only control plates at the beginning and end of the compound plate stack.
row,Structure (SMILES),"activity change, negative = inhibition"
1,O=C(CCCCCCC(=O)Nc1ccccc1)NO,-101%
